Results from publication PMC6155239, “Targeting PFKFB3 radiosensitizes cancer cells and suppresses homologous recombination” (Nature Communications, 2018).

Tested on: 97 kinases of the scanEDGE set
Assay: DiscoveRx KINOMEscan scanEDGE panel
Type: binding
Conditions: 2 µM

Structure (SMILES) | SScore(35)
O=C(O)c1ccc(NS(=O)(=O)c2cccc(-c3cc(F)ccc3O)c2)cc1O [KAN0438241, 4-{[(5′-Fluoro-2′-hydroxybiphenyl-3-yl)sulfonyl]amino}-2-hydroxybenzoic acid] | 0
O=C(OCCO)c1ccc(NS(=O)(=O)c2cccc(-c3cc(F)ccc3O)c2)cc1O [KAN0438757, 2-Hydroxyethyl-4-{[(5′-fluoro-2′-hydroxybiphenyl-3-yl)sulfonyl]amino}-2-hydroxybenzoate] | 0
